Measured values taken from ChEMBL document CHEMBL4303122, “Identification of potential treatments for COVID-19 through artificial intelligence-enabled phenomic analysis of human cells infected with SARS-CoV-2” (2020).
Where “and” joins values, the source holds several entries; their conditions need not be identical. Equal entries are not always repeated. Whole data set: some 1,600 compounds, median “Hit score” near 0.13, cut for the highest 2% near 0.46. Some of the results follow.

The compounds below were run on SARS-CoV-2 (assay: Antiviral activity against SARS-CoV-2 (USA-WA1/2020 strain) measured by imaging in HRCE cells at MOI 0.4 after 96 hrs (reported as hit score from 0-1 for on-disease vs off-disease activity: scores >0.6 considered hits)).
Type: functional, Homo sapiens

| Compound | Hit score |
| --- | --- |
| COc1ccc(CN2CCNCC2)c(OC)c1OC.Cl.Cl [TRIMETAZIDINE DIHYDROCHLORIDE] | 0.06907 |
| C[C@]12CC[C@@H]3c4ccc(OC(=O)N(CCCl)CCCl)cc4CC[C@H]3[C@@H]1CC[C@@H]2O [ESTRAMUSTINE] | 0.23 |
| COc1cc(C2Oc3cc([C@H]4Oc5cc(O)cc(O)c5C(=O)[C@@H]4O)ccc3OC2CO)ccc1O (some centres not stated) [SILIBININ] | 0.1996 |
| CC(=O)O[C@]1(C(C)=O)CC[C@H]2[C@@H]3C[C@H](C)C4=CC(=O)CC[C@]4(C)[C@H]3CC[C@@]21C [MEDROXYPROGESTERONE ACETATE] | 0.2613 |
| CO[C@@H]1[C@H](N(C)C(=O)c2ccccc2)C[C@H]2O[C@]1(C)n1c3ccccc3c3c4c(c5c6ccccc6n2c5c31)C(=O)NC4 [MIDOSTAURIN] | -0.02037 |
| CC(C)N(CCC(C(N)=O)(c1ccccc1)c1ccccn1)C(C)C (configuration not stated) [DISOPYRAMIDE] | 0.1987 |
| CC(=O)N[C@@H](CS)C(=O)O [ACETYLCYSTEINE] | 0.1287 and 0.2321 |
| N=C(N)NCc1cccc(I)c1 [IOBENGUANE] | -0.003502 |
| NC(=O)OCC(COC(N)=O)c1ccccc1 [FELBAMATE] | 0.06665 |
| Cc1ccc2c(c1)[C@]13CCCC[C@@H]1[C@H](C2)N(C)CC3 [DIMEMORFAN] | 0.08461 |
| N[C@@H](Cc1ccc(N(CCCl)CCCl)cc1)C(=O)O | 0.13 |
| COC(=O)N[C@H](C(=O)N[C@@H](Cc1ccccc1)[C@@H](O)CN(Cc1ccc(-c2ccccn2)cc1)NC(=O)[C@@H](NC(=O)OC)C(C)(C)C)C(C)(C)C [ATAZANAVIR] | 0.1414 |
| CNC[C@H](O)[C@@H](O)[C@H](O)[C@H](O)CO [MEGLUMINE] | 0.1269 |
| Cn1cc(C(=O)[C@@H]2CCc3[nH]cnc3C2)c2ccccc21 [RAMOSETRON] | 0.1855 |
| CCOC(=O)[C@H](C)C[C@@H](Cc1ccc(-c2ccccc2)cc1)NC(=O)CCC(=O)O [SACUBITRIL] | 0.07267 |
| CCOC(=O)[C@H](CCc1ccccc1)N[C@@H](C)C(=O)N(CC(=O)O)C1Cc2ccccc2C1 | 0.293 |
| C1CCN2C[C@@H]3C[C@@H](CN4CCCC[C@@H]34)[C@H]2C1.O.O.O.O.O.O=S(=O)(O)O [SPARTEINE SULFATE] | 0.06144 |
| C[C@H](Cn1cnc2c(N)ncnc21)OCP(=O)(O)O [TENOFOVIR ANHYDROUS] | 0.1182 |
| CC(C)(C)c1ccc(C(=O)CCCN2CCC(OC(c3ccccc3)c3ccccc3)CC2)cc1 [EBASTINE] | 0.1539 |
| CC[C@H](NC(=O)c1c(O)c(-c2ccccc2)nc2ccccc12)c1ccccc1 [TALNETANT] | 0.007184 |
| COc1cccc(Nc2c(C(N)=O)cnc3c(C)cc(S(=O)(=O)c4cccc(C(=O)N(C)C)c4)cc23)c1 [GSK-256066] | -0.006373 |
| Nc1c(CC(=O)O)cccc1C(=O)c1ccc(Br)cc1 [BROMFENAC] | 0.2148 |
| C=CCNc1nc(NCC=C)nc(N2CCN(C(c3ccc(F)cc3)c3ccc(F)cc3)CC2)n1 [ALMITRINE] | 0.7206 |

| Compound | Hit score |
| --- | --- |
| CN(C/C=C/c1ccccc1)Cc1cccc2ccccc12 [NAFTIFINE] | 0.03695 |
| CC(=O)CCCCn1c(=O)c2c(ncn2C)n(C)c1=O [PENTOXIFYLLINE] | 0.2031 |
| N[C@@H](Cc1cc(CP(=O)(O)O)cc(-c2ccccc2Cl)c1)C(=O)O | 0.1456 |
| CC(C)(C)c1nc(-c2cccc(NS(=O)(=O)c3c(F)cccc3F)c2F)c(-c2ccnc(N)n2)s1 [DABRAFENIB] | -0.274 |
| CCN1CCCC(OC(=O)C(c2ccccc2)c2ccccc2)C1 (configuration not stated) [PIPERIDOLATE] | 0.179 |
| Nc1ccc(C(=O)O)cc1 [AMINOBENZOIC ACID] | 0.2847 |
| CCCCCNC(=N)N/N=C/c1c[nH]c2ccc(OC)cc12 [TEGASEROD] | -0.04384 |
| NS(=O)(=O)c1cc(Cl)c(Cl)c(S(N)(=O)=O)c1 [DICHLORPHENAMIDE] | 0.1613 |
| COc1c(C)c2c(c(O)c1C/C=C(\C)CCC(=O)O)C(=O)OC2 [MYCOPHENOLIC ACID] | 0.03235 |
| O=C(Oc1ccccc1C(=O)O)c1ccccc1O [SALSALATE] | 0.2499 |
| O=C(NCCN1CCOCC1)c1ccc(Cl)cc1 [MOCLOBEMIDE] | 0.1695 |
| C[C@H](Cc1cc2c(c(C(N)=O)c1)N(CCCO)CC2)NCCOc1ccccc1OCC(F)(F)F [SILODOSIN] | 0.3783 |
| NCCNCCNCCN [TRIENTINE] | 0.1736 |
| CC[C@H]1OC(=O)C[C@@H](O)[C@H](C)[C@@H](O[C@@H]2O[C@H](C)[C@@H](O)[C@H](N(C)C)[C@H]2O)[C@@H](CCN2C[C@H](C)C[C@H](C)C2)C[C@@H](C)C(=O)/C=C/C(C)=C/[C@@H]1CO[C@@H]1O[C@H](C)[C@@H](O)[C@@H](OC)[C@H]1OC [TILMICOSIN] | 0.01322 |
| OC(c1cc(C(F)(F)F)nc2c(C(F)(F)F)cccc12)C1CCCCN1 (configuration not stated) [MEFLOQUINE] | -0.07632 |
| Cc1cc(C)cc(OCC2CNC(=O)O2)c1 (configuration not stated) [METAXALONE] | 0.2292 |
| COc1ccc(NC(=O)c2ccc(C(=N)N(C)C)cc2)c(C(=O)Nc2ccc(Cl)cn2)c1 [BETRIXABAN] | 0.004778 |
| CC(=O)[C@@]12O[C@](C)(c3ccccc3)O[C@@H]1C[C@H]1[C@@H]3CCC4=CC(=O)CC[C@]4(C)[C@H]3CC[C@@]12C [ALGESTONE ACETOPHENIDE] | 0.1273 |
| CCN(CC)C(=O)/C(C#N)=C/c1cc(O)c(O)c([N+](=O)[O-])c1 [ENTACAPONE] | 0.1988 |
| Nc1nc(N)nc(NC2CC2)n1 [CYROMAZINE] | 0.0904 |
| C[C@]12CCC(=O)C=C1CC[C@@H]1[C@@H]2C(=O)C[C@@]2(C)[C@H]1CC[C@]2(O)C(=O)CO [CORTISONE] | 0.1539 |
| O=C1[C@@H]2[C@H]3CC[C@H](C3)[C@@H]2C(=O)N1C[C@@H]1CCCC[C@H]1CN1CCN(c2nsc3ccccc23)CC1 [LURASIDONE] | 0.4322 |
| CCCN1C[C@H](CSC)C[C@@H]2c3cccc4[nH]cc(c34)C[C@H]21 [PERGOLIDE] | 0.1009 |

| Compound | Hit score |
| --- | --- |
| CCOc1cc(CC(=O)N[C@@H](CC(C)C)c2ccccc2N2CCCCC2)ccc1C(=O)O [REPAGLINIDE] | 0.06595 |
| CCOC(=O)C1=C(C)NC(C)=C(C(=O)OCC)C1c1ccccc1/C=C/C(=O)OC(C)(C)C [LACIDIPINE] | 0.0561 |
| CN1[C@@H]2CC[C@H]1C[C@@H](OC(=O)C(CO)c1ccccc1)C2 (some centres not stated) [ATROPINE] | 0.04488 |
| CC(C)NCC(O)c1ccc(O)c(O)c1 (configuration not stated) [ISOPROTERENOL] | 0.1056 |
| COc1ccc2[nH]c([S@@+]([O-])Cc3ncc(C)c(OC)c3C)nc2c1 [ESOMEPRAZOLE] | 0.09016 |
| Nc1nc2c(ncn2COCCO)c(=O)[nH]1 [ACYCLOVIR] | 0.1075 |
| CC(C)(CCCCCC(O)CCCCCC(C)(C)C(=O)O)C(=O)O [BEMPEDOIC ACID] | 0.1415 |
| CCN(CCO)CCCC(C)Nc1ccnc2cc(Cl)ccc12.O=S(=O)(O)O (configuration not stated) [HYDROXYCHLOROQUINE SULFATE] | 0.1708 |
| C=C[C@H]1CN2CC[C@H]1C[C@H]2[C@H](O)c1ccnc2ccc(OC)cc12 [QUININE] | 0.1408 |
| N[C@@H](C(=O)N[C@@H]1C(=O)N2C(C(=O)O)=C(Cl)CS[C@H]12)c1ccccc1 [CEFACLOR ANHYDROUS] | 0.3978 |
| CCCCOC(=O)c1ccccc1Nc1cccc(C(F)(F)F)c1 [UFENAMATE] | 0.06382 |
| CCCC[C@H](NC(=O)[C@@H]1[C@@H]2[C@H](CN1C(=O)[C@@H](NC(=O)NC1(CS(=O)(=O)C(C)(C)C)CCCCC1)C(C)(C)C)C2(C)C)C(=O)C(=O)NC1CC1 | 0.1004 |
| COc1ccc(C(=O)c2ccccc2)c(O)c1 [OXYBENZONE] | 0.4514 |
| CCC(C(=O)O)c1ccc(N2Cc3ccccc3C2=O)cc1 (configuration not stated) [INDOBUFEN] | 0.1057 |
| COc1ncnc(NS(=O)(=O)c2ccc(N)cc2)c1OC [SULFADOXINE] | 0.09937 |
| CCOC(=O)[C@H](CCc1ccccc1)N[C@H]1CCCN2CCC[C@@H](C(=O)O)N2C1=O [CILAZAPRIL] | 0.1586 |
| COc1cc(C(C)=O)ccc1OCCCN1CCC(c2noc3cc(F)ccc23)CC1 [ILOPERIDONE] | 0.03744 |
| CCOc1ccc(Cc2cc([C@]34OC[C@](CO)(O3)[C@@H](O)[C@H](O)[C@H]4O)ccc2Cl)cc1 [ERTUGLIFLOZIN] | 0.1785 |
| C[C@]1(Cn2ccnn2)[C@H](C(=O)O)N2C(=O)C[C@H]2S1(=O)=O [TAZOBACTAM] | 0.04532 |
| CCCCC(CC)COC(=O)C=Cc1ccc(OC)cc1 (configuration not stated) [OCTINOXATE] | 0.1108 |
| COC(=O)N[C@H](C(=O)N1CCC[C@H]1c1ncc(-c2ccc(-c3ccc(-c4cnc([C@@H]5CCCN5C(=O)[C@@H](NC(=O)OC)C(C)C)[nH]4)cc3)cc2)[nH]1)C(C)C | -0.06011 |

Of the compounds above, 3 contain a CF3 group.

| Compound | Hit score |
| --- | --- |
| C[C@H](Cc1cc2c(c(C(N)=O)c1)N(CCCO)CC2)NCCOc1ccccc1OCC(F)(F)F [SILODOSIN] | 0.3783 |
| OC(c1cc(C(F)(F)F)nc2c(C(F)(F)F)cccc12)C1CCCCN1 (configuration not stated) [MEFLOQUINE] | -0.07632 |
| CCCCOC(=O)c1ccccc1Nc1cccc(C(F)(F)F)c1 [UFENAMATE] | 0.06382 |
